Assay results reported in patent US10857167B2, “Use of oligosaccharide compositions to enhance weight gain” (Children's Hospital Medical Center, priority 2015, dated 2020).
Further values from the same series stand in other lists.

Test system: distal small bowel gene expression
Test: RNA sequencing / transcriptional analysis of small bowel 56 days after ICR (2′-FL signature response)
Format: in vivo, mouse
From the text: Luminal small bowel contents were expressed into AllProtect Tissue Reagent (Qiagen Inc, CA). Bacterial DNA was extracted using the AllPrep DNA/RNA Mini Kit (Qiagen Inc, CA), according to kit instructions and prior to sequencing (described below). Small bowel tissue samples for RNA were placed into RNA Later (Life Technologies, NY). RNA extraction was accomplished following Qiagen RNeasy Plus Kit instruction (Qiagen Inc, CA). All nucleic acid samples were then stored at -80 Celsius until sequenced (described below). Transcriptional analysis was carried out on resected and harvested small bowel samples obtained from operated mice taken to 8 weeks. Murine RNA sequencing libraries were prepared from approximately 1.5 μg RNA using the TruSeq RNA Sample Preparation Kit (Illumina, Calif.) and sequenced using the HiSeq 2000 Sequencing System (Illumina, Calif.) with single-end 50 bp reads. Following removal of primers and barcodes, sequences were aligned to the mm10 genome using reference annotations from UCSC (Rosenbloom et al. (2015) Nucleic acids research 43: […]-681) (n=36,186 entities). Aligned reads were quantified and used to compute reads per kilobase per million mapped reads (RPKM); raw counts were then normalized using the DESeq algorithm and each harvested sample was baselined to its own resected sample. A filter was applied to the data, requiring at least three reads in all samples of at least one of the four experimental conditions (n=14,489 entities). The data discussed in this publication have been deposited in NCBI's Gene Expression Omnibus and are accessible through NCBI Gene Expression Omnibus (GEO) Series accession number GSE72590. Edgar et al. (2002) Nucleic acids research 30: 207-210. In order to characterize the impact of 2'-FL supplementation while accounting for the effect of ileoecal resection, a t-test was applied between resected and harvested samples within control and experimental animals. Significance was set at a p-value of ≤0.05 and a fold change of 3, which generated 2,576 differentially regulated entities across two comparisons. Gene set unions and intersections of the control and experimental gene sets were identified through Venn diagrams. From the master list, the gene list specific to animals supplemented with 2'-FL were removed in order to identify genes differentially regulated only by ICR (n=546 entities); this gene set characterizes the adaptive response. Further, the 2'-FL response (n=2,030 entities) was identified by removing the adaptive response signature described above from the master list, leaving only genes regulated by 2'-FL supplementation after ICR which were not found in the non-supplemented adaptive response. Heatmaps were generated using hierarchical clustering with the Pearson's Centered distance metric and the average linkage rule; both entities and samples were clustered. All genomic analyses described above were performed in Strand NGS (Strand Life Sciences, CA). Gene list functional enrichment was initially discovered using ToppFun, a member of the ToppGene Suite. Chen et al. (2009) Nucleic acids research 37: […]-311. No statistical correction was selected. Gene lists were further analyzed using ClueGO, a plugin for Cytoscape designed to decipher functionally grouped gene ontology and pathway annotation networks. Bindea et al. (2009) Bioinformatics 25: 1091-1093. At the time of data analysis, the annotation files were updated from sources to Jan. 1, 2015. “GO Term Fusion” was enabled to manage ontologic term redundancy and network specificity was set to medium. Results were restricted to pathways with p≤0.05 using Benjamini-Hochberg correction and Kappa scoring was set to 0.4. Biocyc annotations were assigned a rectangle, gene ontology biologic processes were assigned an ellipse, and […] annotations were assigned a diamond shape. No meaning was assigned to size or color. […]

C[C@@H]1O[C@@H](O[C@H]2[C@H](O[C@H]3[C@H](O)[C@@H](O)C(O)O[C@@H]3CO)O[C@H](CO)[C@H](O)[C@@H]2O)[C@@H](O)[C@H](O)[C@@H]1O (stereo partly drawn) [2′-FL, 2′-fucosyllactose]
Fold Change (Pre- to Post-op) (15-Sep): 4.813 | Fold Change (Pre- to Post-op) (0610007P14Rik): 3.908 | Fold Change (Pre- to Post-op) (0610008F07Rik): 8.362 | Fold Change (Pre- to Post-op) (0610009B22Rik): 3.407 | Fold Change (Pre- to Post-op) (1110001A16Rik): 4.082 | Fold Change (Pre- to Post-op) (1110001J03Rik): 4.318 | Fold Change (Pre- to Post-op) (1110008F13Rik): 3.013 | Fold Change (Pre- to Post-op) (1110008P14Rik): 3.31 | Fold Change (Pre- to Post-op) (1110034G24Rik): 4.269 | Fold Change (Pre- to Post-op) (1110046J04Rik): 5.462 | Fold Change (Pre- to Post-op) (1110059E24Rik): 3.386 | Fold Change (Pre- to Post-op) (1110065P20Rik): 3.231 | Fold Change (Pre- to Post-op) (1190002F15Rik): 3.327 | Fold Change (Pre- to Post-op) (1500009L16Rik): 3.939 | Fold Change (Pre- to Post-op) (1500011K16Rik): 4.922 | Fold Change (Pre- to Post-op) (1500012F01Rik): 5.374 | Fold Change (Pre- to Post-op) (1600020E01Rik): 3.548 | Fold Change (Pre- to Post-op) (1700001C19Rik): 6.39 | Fold Change (Pre- to Post-op) (1700007L15Rik): 3.598 | Fold Change (Pre- to Post-op) (1700011J10Rik): 3.153 | Fold Change (Pre- to Post-op) (1700012D14Rik): 5.796 | Fold Change (Pre- to Post-op) (1700024P16Rik): 3.748 | Fold Change (Pre- to Post-op) (1700066M21Rik): 3.487 | Fold Change (Pre- to Post-op) (1700123I01Rik): 3.901 | Fold Change (Pre- to Post-op) (1810022K09Rik): 3.829 | Fold Change (Pre- to Post-op) (1810037I17Rik): 3.823 | Fold Change (Pre- to Post-op) (2010010A06Rik): 3.358 | Fold Change (Pre- to Post-op) (2010106C02Rik): 4.514 | Fold Change (Pre- to Post-op) (2010107E04Rik): 3.76 | Fold Change (Pre- to Post-op) (2010107G23Rik): 3.868 | Fold Change (Pre- to Post-op) (2010315B03Rik): 3.599 | Fold Change (Pre- to Post-op) (2200002D01Rik): 3.45 | Fold Change (Pre- to Post-op) (2200002J24Rik): 15.95 | Fold Change (Pre- to Post-op) (2210404O09Rik): 3.071 | Fold Change (Pre- to Post-op) (2210407C18Rik): 3.899 | Fold Change (Pre- to Post-op) (2310009B15Rik): 3.562 | Fold Change (Pre- to Post-op) (2310011J03Rik): 3.309 | Fold Change (Pre- to Post-op) (2310040G24Rik): 4.638 | Fold Change (Pre- to Post-op) (2410006H16Rik): 3.043 | Fold Change (Pre- to Post-op) (2410015M20Rik): 3.879 | Fold Change (Pre- to Post-op) (2410018M08Rik): 3.287 | Fold Change (Pre- to Post-op) (2610044O15Rik8): 3.978 | Fold Change (Pre- to Post-op) (2810001G20Rik): 3.668 | Fold Change (Pre- to Post-op) (2810008D09Rik): 3.37 | Fold Change (Pre- to Post-op) (2810013P06Rik): 3.018 | Fold Change (Pre- to Post-op) (2810433D01Rik): 6.1 | Fold Change (Pre- to Post-op) (3110040N11Rik): 3.233 | Fold Change (Pre- to Post-op) (3110056K07Rik): 4.093 | Fold Change (Pre- to Post-op) (3110070M22Rik): 7.551 | Fold Change (Pre- to Post-op) (4930415O20Rik): 4.883 | Fold Change (Pre- to Post-op) (4933422H20Rik): 4.499 | Fold Change (Pre- to Post-op) (5033403H07Rik): 4.67 | Fold Change (Pre- to Post-op) (5033411D12Rik): 3.505 | Fold Change (Pre- to Post-op) (5730408K05Rik): 5.448 | Fold Change (Pre- to Post-op) (5830416P10Rik): 10.25 | Fold Change (Pre- to Post-op) (6720489N17Rik): 4.273 | Fold Change (Pre- to Post-op) (9530052C20Rik): 4.033 | Fold Change (Pre- to Post-op) (A430005L14Rik): 3.813 | Fold Change (Pre- to Post-op) (A630001O12Rik): 10.88 | Fold Change (Pre- to Post-op) (A730063M14Rik): 5.514 | Fold Change (Pre- to Post-op) (A930006K02Rik): 6.095 | Fold Change (Pre- to Post-op) (A930015D03Rik): 3.192 | Fold Change (Pre- to Post-op) (AA465934): 7.221 | Fold Change (Pre- to Post-op) (AA467197): 6.565 | Fold Change (Pre- to Post-op) (Abhd11os): 3.549 | Fold Change (Pre- to Post-op) (Abhd17a): 3.094 | Fold Change (Pre- to Post-op) (Acbd4): 3.196 | Fold Change (Pre- to Post-op) (Acn9): 5.819 | Fold Change (Pre- to Post-op) (Acot12): 3.166 | Fold Change (Pre- to Post-op) (Acot13): 3.51 | Fold Change (Pre- to Post-op) (Actr6): 3.571 | Fold Change (Pre- to Post-op) (Acyp1): 3.962 | Fold Change (Pre- to Post-op) (Adh6a): 3.5 | Fold Change (Pre- to Post-op) (Adprm): 3.567 | Fold Change (Pre- to Post-op) (Agbl3): 3.602 | Fold Change (Pre- to Post-op) (Agbl5): −3.003 | Fold Change (Pre- to Post-op) (Akr1b8): 3.435 | Fold Change (Pre- to Post-op) (Akr1c12): 3.469 | Fold Change (Pre- to Post-op) (Akr1c13): 6.507 | Fold Change (Pre- to Post-op) (Akr1c19): 8.797 | Fold Change (Pre- to Post-op) (Aldh1a1): 3.377 | Fold Change (Pre- to Post-op) (Aldh1a7): 3.27 | Fold Change (Pre- to Post-op) (Aldoc): 5.654 | Fold Change (Pre- to Post-op) (Alkbh7): 3.67 | Fold Change (Pre- to Post-op) (Ankrd13b): −3.01 | Fold Change (Pre- to Post-op) (Anxa9): 3.441 | Fold Change (Pre- to Post-op) (Apitd1): 3.826 | Fold Change (Pre- to Post-op) (Apoa2): 9.395 | Fold Change (Pre- to Post-op) (Apoc3): 3.491 | Fold Change (Pre- to Post-op) (Apoc4): 4.486 | Fold Change (Pre- to Post-op) (Apopt1): 3.11 | Fold Change (Pre- to Post-op) (Arf5): 3.548 | Fold Change (Pre- to Post-op) (Arhgap11a): −3.009 | Fold Change (Pre- to Post-op) (Arl1): 3.797 | Fold Change (Pre- to Post-op) (Arl4a): 3.405 | Fold Change (Pre- to Post-op) (Arsg): 3.436 | Fold Change (Pre- to Post-op) (Art2a-ps): 3.494 | Fold Change (Pre- to Post-op) (Atf3): 3.938 | Fold Change (Pre- to Post-op) (Atg4a-ps): 3.505 | Fold Change (Pre- to Post-op) (Atg5): 3.402 | Fold Change (Pre- to Post-op) (Atg12): 3.227 | Fold Change (Pre- to Post-op) (Atox1): 3.524 | Fold Change (Pre- to Post-op) (Atp5e): 6.206 | Fold Change (Pre- to Post-op) (Atp5f1): 3.505 | Fold Change (Pre- to Post-op) (Atp5j): 3.073 | Fold Change (Pre- to Post-op) (Atp5k): 5.325 | Fold Change (Pre- to Post-op) (Atp5l): 4.679 | Fold Change (Pre- to Post-op) (Atp5o): 3.522 | Fold Change (Pre- to Post-op) (Atp6v0b): 3.974 | Fold Change (Pre- to Post-op) (Atp6v0e): 3.054 | Fold Change (Pre- to Post-op) (Atp6v1g1): 3.248 | Fold Change (Pre- to Post-op) (Atp5h): 3.312 | Fold Change (Pre- to Post-op) (B9d1): 3.968 | Fold Change (Pre- to Post-op) (BC002163): 3.924 | Fold Change (Pre- to Post-op) (BC025446): 3.651 | Fold Change (Pre- to Post-op) (BC029214): 3.516 | Fold Change (Pre- to Post-op) (BC035044): 5.04 | Fold Change (Pre- to Post-op) (BC051226): 3.802 | Fold Change (Pre- to Post-op) (BC061194): 5.845 | Fold Change (Pre- to Post-op) (BC096441): 4.013
